The values that follow come from PMC9484695, “The evolutionary conserved proteins CEP90, FOPNL, and OFD1 recruit centriolar distal appendage proteins to initiate their assembly” (PLoS Biology, 2022).

The target of this assay is GFP-tagged mouse FOPNL (mouse). The experiment in a line: co-IP; Hela Kyoto GFP-FOPNL lysate (50 mM Tris-HCl pH 7.5, 150 mM NaCl, 1 mM EDTA, 1% NP-40, 0.25% sodium deoxycholate); agarose beads with mouse anti-GFP or mouse IgG, 3 h at 4°C; blots with anti-GFP, CEP90 and OFD1.

Results are given in words; binding and its absence hold for the method and conditions named. Binding seen in cells or lysates may run through a third protein. A result given as binding can be weak or reduced; the word gives no strength.

B1: OFD1 (endogenous) (natural protein, UniProt O75665 1-1012, looked up)
chain: MMAQSNMFTVADVLSQDELRKKLYQTFKDRGILDTLKTQLRNQLIHELMHPVLSGELQPRSISVEGSSLLIGASNSLVADHLQRCGYEYSLSVFFPESGLAKEKVFTMQDLLQLIKINPTSSLYKSLVSGSDKENQKGFLMHFLKELAEYHQAKESCNMETQTSSTFNRDSLAEKLQLIDDQFADAYPQRIKFESLEIKLNEYKREIEEQLRAEMCQKLKFFKDTEIAKIKMEAKKKYEKELTMFQNDFEKACQAKSEALVLREKSTLERIHKHQEIETKEIYAQRQLLLKDMDLLRGREAELKQRVEAFELNQKLQEEKHKSITEALRRQEQNIKSFEETYDRKLKNELLKYQLELKDDYIIRTNRLIEDERKNKEKAVHLQEELIAINSKKEELNQSVNRVKELELELESVKAQSLAITKQNHMLNEKVKEMSDYSLLKEEKLELLAQNKLLKQQLEESRNENLRLLNRLAQPAPELAVFQKELRKAEKAIVVEHEEFESCRQALHKQLQDEIEHSAQLKAQILGYKASVKSLTTQVADLKLQLKQTQTALENEVYCNPKQSVIDRSVNGLINGNVVPCNGEISGDFLNNPFKQENVLARMVASRITNYPTAWVEGSSPDSDLEFVANTKARVKELQQEAERLEKAFRSYHRRVIKNSAKSPLAAKSPPSLHLLEAFKNITSSSPERHIFGEDRVVSEQPQVGTLEERNDVVEALTGSAASRLRGGTSSRRLSSTPLPKAKRSLESEMYLEGLGRSHIASPSPCPDRMPLPSPTESRHSLSIPPVSSPPEQKVGLYRRQTELQDKSEFSDVDKLAFKDNEEFESSFESAGNMPRQLEMGGLSPAGDMSHVDAAAAAVPLSYQHPSVDQKQIEEQKEEEKIREQQVKERRQREERRQSNLQEVLERERRELEKLYQERKMIEESLKIKIKKELEMENELEMSNQEIKDKSAHSENPLEKYMKIIQQEQDQESADKSSKKMVQEGSLVDTLQSSDKVESLTGFSHEELDDSW
notes: OFD1, endogenous human protein; source: endogenous: HEK293 Flp-In cells (BioID); Hela Kyoto lysate (co-IP); U2OS cells (microtubule recruitment assay)
Turning to B1, the binding result was “binds”.

B2: CEP90/PIBF1 (endogenous) (protein, UniProt Q8WXW3 1-757)
chain: MSRKISKESKKVNISSSLESEDISLETTVPTDDISSSEEREGKVRITRQLIERKELLHNIQLLKIELSQKTMMIDNLKVDYLTKIEELEEKLNDALHQKQLLTLRLDNQLAFQQKDASKYQELMKQEMETILLRQKQLEETNLQLREKAGDVRRNLRDFELTEEQYIKLKAFPEDQLSIPEYVSVRFYELVNPLRKEICELQVKKNILAEELSTNKNQLKQLTETYEEDRKNYSEVQIRCQRLALELADTKQLIQQGDYRQENYDKVKSERDALEQEVIELRRKHEILEASHMIQTKERSELSKEVVTLEQTVTLLQKDKEYLNRQNMELSVRCAHEEDRLERLQAQLEESKKAREEMYEKYVASRDHYKTEYENKLHDELEQIRLKTNQEIDQLRNASREMYERENRNLREARDNAVAEKERAVMAEKDALEKHDQLLDRYRELQLSTESKVTEFLHQSKLKSFESERVQLLQEETARNLTQCQLECEKYQKKLEVLTKEFYSLQASSEKRITELQAQNSEHQARLDIYEKLEKELDEIIMQTAEIENEDEAERVLFSYGYGANVPTTAKRRLKQSVHLARRVLQLEKQNSLILKDLEHRKDQVTQLSQELDRANSLLNQTQQPYRYLIESVRQRDSKIDSLTESIAQLEKDVSNLNKEKSALLQTKNQMALDLEQLLNHREELAAMKQILVKMHSKHSENSLLLTKTEPKHVTENQKSKTLNVPKEHEDNIFTPKPTLFTKKEAPEWSKKQKMKT
Consider B2, for which the binding entry is “binds”.
